Results are given in words; binding and its absence hold for the method and conditions named. Binding seen in cells or lysates may run through a third protein. These calls come from enrichment with a bait or labelling near it, and not all partners need be listed.
Target: TAP-tagged Spt16 (Spt16-TAP), wild type (budding yeast (S. cerevisiae)) (UniProt P32558)
Assay: affinity purification with mass spectrometry; tandem affinity purification of wild-type Spt16 or Spt16-ΔN from yeast cells, SDS-PAGE, label-free quantitative mass spectrometry, n = 3

By UniProt entry, the sequences of proteins in these tests, tags left out.
UniProt P32558: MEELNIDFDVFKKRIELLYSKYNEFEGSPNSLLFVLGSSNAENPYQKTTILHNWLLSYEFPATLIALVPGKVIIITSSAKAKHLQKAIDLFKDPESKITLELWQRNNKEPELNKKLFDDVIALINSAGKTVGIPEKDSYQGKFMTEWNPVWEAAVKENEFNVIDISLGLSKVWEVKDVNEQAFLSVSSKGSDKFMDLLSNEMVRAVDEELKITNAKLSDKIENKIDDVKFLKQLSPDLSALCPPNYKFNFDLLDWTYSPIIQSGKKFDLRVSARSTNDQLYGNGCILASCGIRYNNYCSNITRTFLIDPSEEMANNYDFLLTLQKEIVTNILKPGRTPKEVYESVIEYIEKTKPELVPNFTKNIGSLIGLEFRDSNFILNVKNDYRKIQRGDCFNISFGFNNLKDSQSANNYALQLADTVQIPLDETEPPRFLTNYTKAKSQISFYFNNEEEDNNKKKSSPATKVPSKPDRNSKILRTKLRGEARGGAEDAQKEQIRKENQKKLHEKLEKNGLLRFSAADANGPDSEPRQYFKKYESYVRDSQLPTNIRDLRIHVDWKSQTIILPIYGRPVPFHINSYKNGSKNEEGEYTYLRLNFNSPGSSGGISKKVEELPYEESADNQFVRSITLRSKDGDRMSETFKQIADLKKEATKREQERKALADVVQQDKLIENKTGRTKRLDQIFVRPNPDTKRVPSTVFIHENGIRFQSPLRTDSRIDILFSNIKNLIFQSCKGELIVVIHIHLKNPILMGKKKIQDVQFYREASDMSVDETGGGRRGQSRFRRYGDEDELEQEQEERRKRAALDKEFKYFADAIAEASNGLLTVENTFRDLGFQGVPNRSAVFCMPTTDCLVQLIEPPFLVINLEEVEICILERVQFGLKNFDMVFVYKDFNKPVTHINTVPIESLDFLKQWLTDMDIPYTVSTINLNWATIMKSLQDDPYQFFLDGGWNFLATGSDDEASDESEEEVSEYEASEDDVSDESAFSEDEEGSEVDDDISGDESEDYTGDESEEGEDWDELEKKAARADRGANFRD

Row | Binder | binding
1 | Hos4 (protein, UniProt P40480 1-1083) MNETTTKQPLKKRSLSSYLSNVSTRREELEKISKQETSEEEDTAGKHEQRETLSEEVSDKFPENVASFRSQTTSVHQATQNNLNAKESEDLAHKNDASSHEGEVNGDSRPDDVPETNEKISQAIRAKISSSSSSPNVRNVDIQNHQPFSRDQLRAMLKEPKRKTVDDFIEEEGLGAVEEEDLSDEVLEKNTTEPENVEKDIEYSDSDKDTDDVGSDDPTAPNSPIKLGRRKLVRGDQLDATTSSMFNNESDSELSDIDDSKNIALSSSLFRGGSSPVKETNNNLSNMNSSPAQNPKRGSVSRSNDSNKSSHIAVSKRPKQKKGIYRDSGGRTRLQIACDKGKYDVVKKMIEEGGYDINDQDNAGNTALHEAALQGHIEIVELLIENGADVNIKSIEMFGDTPLIDASANGHLDVVKYLLKNGADPTIRNAKGLTAFESVDDESEFDDEEDQKILREIKKRLSIAAKKWTNRAGIHNDKSKNGNNAHTIDQPPFDNTTKAKNEKAADSPSMASNIDEKAPEEEFYWTDVTSRAGKEKLFKASKEGHLPYVGTYVENGGKIDLRSFFESVKCGHEDITSIFLAFGFPVNQTSRDNKTSALMVAVGRGHLGTVKLLLEAGADPTKRDKKGRTALYYAKNSIMGITNSEEIQLIENAINNYLKKHSEDNNDDDDDDDNNNETYKHEKKREKTQSPILASRRSATPRIEDEEDDTRMLNLADDDFNNDRDVKESTTSDSRKRLDDNENVGTQYSLDWKKRKTNALQDEEKLKSISPLSMEPHSPKKAKSVEISKIHEETAAEREARLKEEEEYRKKRLEKKRKKEQELLQKLAEDEKKRIEEQEKQKVLEMERLEKATLEKARKMEREKEMEEISYRRAVRDLYPLGLKIINFNDKLDYKRFLPLYYFVDEKNDKFVLDLQVMILLKDIDLLSKDNQPTSEKIPVDPSHLTPLWNMLKFIFLYGGSYDDKKNNMENKRYVVNFDGVDLDTKIGYELLEYKKFVSLPMAWIKWDNVVIENHAKRKEIEGNMIQISINEFARWRNDKLNKAQQPTRKQRSLKIPRELPVKFQHRMSISSVLQQTSKEPFW | binds
2 | Mcm7 (protein, UniProt P38132 1-845) MSAALPSIQLPVDYNNLFNEITDFLVTFKQDTLSSDATRNENEDENLDAENIEQHLLEKGPKYMAMLQKVANRELNSVIIDLDDILQYQNEKFLQGTQADDLVSAIQQNANHFTELFCRAIDNNMPLPTKEIDYKDDVLDVILNQRRLRNERMLSDRTNEIRSENLMDTTMDPPSSMNDALREVVEDETELFPPNLTRRYFLYFKPLSQNCARRYRKKAISSKPLSVRQIKGDFLGQLITVRGIITRVSDVKPAVEVIAYTCDQCGYEVFQEVNSRTFTPLSECTSEECSQNQTKGQLFMSTRASKFSAFQECKIQELSQQVPVGHIPRSLNIHVNGTLVRSLSPGDIVDVTGIFLPAPYTGFKALKAGLLTETYLEAQFVRQHKKKFASFSLTSDVEERVMELITSGDVYNRLAKSIAPEIYGNLDVKKALLLLLVGGVDKRVGDGMKIRGDINVCLMGDPGVAKSQLLKAICKISPRGVYTTGKGSSGVGLTAAVMKDPVTDEMILEGGALVLADNGICCIDEFDKMDESDRTAIHEVMEQQTISISKAGINTTLNARTSILAAANPLYGRYNPRLSPLDNINLPAALLSRFDILFLMLDIPSRDDDEKLAEHVTYVHMHNKQPDLDFTPVEPSKMREYIAYAKTKRPVMSEAVNDYVVQAYIRLRQDSKREMDSKFSFGQATPRTLLGIIRLSQALAKLRLADMVDIDDVEEALRLVRVSKESLYQETNKSKEDESPTTKIFTIIKKMLQETGKNTLSYENIVKTVRLRGFTMLQLSNCIQEYSYLNVWHLINEGNTLKFVDDGTMDTDQEDSLVSTPKLAPQTTASANVSAQDSDIDLQDA | binds
3 | Csm3 (protein, UniProt Q04659 1-317) MDQDFDSLLLGFNDSDSVQKDPTVPNGLDGSVVDPTIADPTAITARKRRPQVKLTAEKLLSDKGLPYVLKNAHKRIRISSKKNSYDNLSNIIQFYQLWAHELFPKAKFKDFMKICQTVGKTDPVLREYRVSLFRDEMGMSFDVGTRETGQDLERQSPMVEEHVTSAEERPIVADSFAQDKRNVNNVDYDNDEDDDIYHLSYRNRRGRVLDERGNNETVLNNVVPPKEDLDALLKTFRVQGPVGLEENEKKLLLGWLDAHRKMEKGSMTEEDVQLIQSLEEWEMNDIEGQHTHYDLLPGGDEFGVDQDELDAMKEMGF | binds

Continued, values first:

Row | binding | Binder
4 | binds | Set3 (protein, UniProt P36124 1-751) MSVPNSKEQSLLDDASTLLLFSKGKKRAEEASKIGSKTDTIEHDESHEREKKGAIEMAAAALATASTVSLPLKKATEQSAAEAATSTAAKEETENQPQKQPQWPVPDSYIVDPDAGIITCICDLNDDDGFTIQCDHCNRWQHAICYGIKDIGMAPDDYLCNSCDPREVDINLARKIQQERINVKTVEPSSSNNSASNKNNGRDRASSTTISDVGDSFSTDQDNTNHRDKRRKRNPSNNSIDSKNESASVNSSDGLTSMPKKKEHFLSAKDAYGAIYLPLKDNVFKSDLIEPFLNKHMDDNWVIQYPHKTFKSVSIEVKPYADIAYSRTYPGFTKLGVYLKKDCIKGDFIQEILGELDFYKNYLTDPRNHYRIWGTAKRRVIFHSHWPIYIDARLSGNSTRYLRRSCQPNVELVTIKLQDTDNRNDKSSGRKSSRIKFVLRALRDISEDEELYIKWQWDSKHPILKLIKGMTIDSLDDLERYGLINSVETILSNGECGCGNNSKDCYLLKVKRYAQSLYKSVKSRGKMNNRYKLNEILNQYNCKKRREPPILHRLEEKAQNTIERAPILLNNFYRQKFLNRNNGPKIPQKNTIDSTNNPDDIAKPFKFALFAQHSSNISVPKKNETSEKPLIITKSTDYDESHITNIEELPIPVLLPINKTSRQTANDVEESQSKNEHKLSRTPSLSNFNKELSKEAQHSQAKTKEIMTEASVNSRRESTPESIMHLSDFSSSQLHSKKKLSFADYRKKLLK
5 | binds | Sif2 (protein, UniProt P38262 1-535) MSITSEELNYLIWRYCQEMGHEVSALALQDETRVLEFDEKYKEHIPLGTLVNLVQRGILYTESELMVDSKGDISALNEHHLSEDFNLVQALQIDKEKFPEISSEGRFTLETNSESNKAGEDGASTVERETQEDDTNSIDSSDDLDGFVKILKEIVKLDNIVSSTWNPLDESILAYGEKNSVARLARIVETDQEGKKYWKLTIIAELRHPFALSASSGKTTNQVTCLAWSHDGNSIVTGVENGELRLWNKTGALLNVLNFHRAPIVSVKWNKDGTHIISMDVENVTILWNVISGTVMQHFELKETGGSSINAENHSGDGSLGVDVEWVDDDKFVIPGPKGAIFVYQITEKTPTGKLIGHHGPISVLEFNDTNKLLLSASDDGTLRIWHGGNGNSQNCFYGHSQSIVSASWVGDDKVISCSMDGSVRLWSLKQNTLLALSIVDGVPIFAGRISQDGQKYAVAFMDGQVNVYDLKKLNSKSRSLYGNRDGILNPLPIPLYASYQSSQDNDYIFDLSWNCAGNKISVAYSLQEGSVVAI
6 | binds | Tof1 (protein, UniProt P53840 1-1238) MSADLQQGTTNAADFSLTVLRARIALLATAIGGPDYTSQIDPPPYKLGDDCLACLKDLKRWFKLVDDQQKRWDVAMAVAEYRILTDDLLPILIDWENKCSLAAKLAKNNPDHEEFRNKAYYDKIALNCLQLLVLMTWPLIVTEQSSSNQITLYGELKKHQLVYKKTILSMESGKVLRAAIRLALDVIKIDRLSRTPRDNMVLKLVLNFFRNVIAIEPGEFTINTKKSMPKKGITSIDTLPPNVSMDDISLNTVISSFHKNKVFGFLLTLTSSLSKEFDQDFINIPLLEIMFYFTKDVNQELLFPRQFETGTHSKVVNKNESSSANNIVTSAGFELSKLLQKEHQMRKNVIKHTSARHSRFGGLLSIQTPDKTRLTVSGSQALVDEKIALQKLDDSKKWNKRIIKKHQSVAAEGLPNSLLNSQTGKAIFFTESNGKHFKEFINNFIDSGFNILLHSVTNYFTTEQDRMVTLEQVEYLLFFAWFVKYQLLRSKIDNSADIKQVSEALKEVTFILVSSLLRSAYDLKNWTVTHAGMIAFNELLNLVSRTKAAQEEDSTDIEFIVSRLFSDERIQLLSNLPKIGSKYSLQFMKSCIELTHSVLKVLEQYSDDKTLVIEGKSRRQKKFNISEGDITKLIEEENVDRDEALDILTSSLRSIEVNFQKVQANYMTEPVIETYINFLERFRELEDDSIKKVFSFFHRVFVQAKEQALLFRFDLIILLREMLSPDGLDRMSRSRKYVSQFSDYFLARLKKRLKKSPAWFVGLLFPPLHNSEVGFYQRYGEYNVLNNESMYAAPASQFKPIPDEEALPPSILLDMKYGVLVSTLLDDGKTELLDQLLKHITHTLDIFKSWLTVNVNAGKETVNPPNEYFTLTGVLNNDPIFKDKDYRALLLLIGYSIPRKINEPCFLPGTVEVSDLTVSCELVKKYLSTPFETPNGLPSSSYLLRVRSEKDSFSHNEQDGWEGDDDYDYNDPYIVPDDQILSKSDAAYFKDLDNNASDKLKGTKFSKGIARSKKKDKRKRRKGEAKTNLPMFGDQDDERPQTVRERHGVFSKEFISDSEDDEDLMNPIFFENETYMRWLLDKNNGQLTEDRYIQFAKFAAERMNNGGVVTGDYTSLFGGSIPSIESIRATESSSFAPDKSLISLASHVASEMSIFDVNNNNNNQLSDDDVNSESRNSLGSSQPSNSQNMFQSEVYSRKESTKRSLEASAADESDEDEEAIRLFGKKSRVVLSQGDSDD
7 | binds | Mrc1 (protein, UniProt P25588 1-1096) MDDALHALSSLTAKKRTTTYKKVAVPILDENDNTNGNGPNDIDNPPELTGNGFLFANATLNRVKNRLEGKKAPEQNHNNGKDRSENSLPTQLISNLYDGGEELEKSEVKDNSYSEKNVSSSFTQTQRIPVSIQQDKVFNVPIHSVNDGKPTQLIKEDGLVNETSQALKTPLTTGRPGATQRIDSSGATSQTQPIKSIEPQSQIITTSSNHSNALSPKIPIIPTELIGTSPLFQSIQNRGPDTQMDVPPQTAHDEDKTQAIGIPQATHQEQKTQIDTVAQTLQDEVPHTLKIREIQSELASEDSKREKARNVEYKKPQKPIPTKKFFSKESFLADFDDSSSNEDDDIKLENAHPKPVQNDDELHENKSVELNLTDETRINEKRVPLLSSYANNLKREIDSSKCITLDLDSDSDEYGDDDMDSIKLSKDESVLPISQLSKATILNLKARLSKQNQKLSQRPNKSKDPKVDHNVLLNTLRKASRKQILDHQKEVIETKGLKLEDMAKEKEIVENLLEQEILRNKRIRQKEKRREKLEENDFQLNAHDSGSDSGSESSGFALSGNEIADYESSGSENDNRRESDSEKEDDEIILKQKKSHHVKHIINESDSDTEVEAKPKEKADESLPKRIAINLGHYGDNIGEDTDKFQETNVLDTQNIEEVMAERNTIENEVKDDVYVNEEADEAIRRQLIDKEKLQLKQKEKEHEAKIKELKKRGVTNFFEMEAEESEDEWHGIGGADGEGSDDYDSDLEKMIDDYSKNNFNPHEIREMLAAENKEMDIKMINKILYDIKNGGFRNKRAKNSLELELSDDDEDDVLQQYRLKRRELMRKRRLEIGDDAKLVKNPKSSAFFESMVEDIIEYKNPFGAEEEYNLDITSTATDLDTQDNSINVGDNTGNNEQKPVDQKNKKVIISEDFVQKSLSFLKSNNYEDFETDKELSRIQHGNDEAIEDLYTLKQNSSIKSFTNSQTDSTTSKTVNTIIDLEKRPEDEDEVENGDTSLVGVFKHPSIIKSFASRTDINDKFKEGNKTVKILKSYKTVGSSKASITYMGKTRKLIAPKRKTEGSHRYHHDHHNKKMKMKTKTKSNKLFESGQDSFDN
